# Values quoted from earlier work, collected in patent US20240245705A1, “ORALLY ADMINISTERED COMBINATIONS OF AMOXICILLIN AND AVIBACTAM DERIVATIVES FOR TREATING MYCOBACTERIAL INFECTIONS” (Arixa Pharmaceuticals, Inc., priority 2019, published 2024).
# Read-outs that look alike come from different tables or passages of the source. Some of these results come from one statement about several compounds together. For at least one compound, name, drawing or mass did not settle the structure.
# Legend:
# [1] = as disclosed in U.S. Pat. No. 10,085,999; species not given; cited from earlier work
# [2] = male Beagle dogs; cited from earlier work
# [3] = Cynomolgus monkeys; cited from earlier work
structure (smiles),measurement,setting,value
"CCCCCCCOC(=O)C(C)(C)COS(=O)(=O)ON1C(=O)N2C[C@H]1CC[C@H]2C(N)=O [avibactam derivative (13), heptyl 3-(((((1R,2S,5R)-2-carbamoyl-7-oxo-1,6-diazabicyclo[3.2.1]octan-6-yl)oxy)sulfonyl)oxy)-2,2-dimethylpropanoate]",oral bioavailability (% F),[1],greater than 10%
same,avibactam oral bioavailability,[2],greater than 50 % F
same,avibactam oral bioavailability,[3],greater than 50 % F
